We go through four molecules from article PMC3169606, “Pub1p C-Terminal RRM Domain Interacts with Tif4631p through a Conserved Region Neighbouring the Pab1p Binding Site” (PLoS ONE, 2011).

Assay [1] deals with T1, Tif4631p (1–82) (Saccharomyces cerevisiae) (UniProt P39935).
T1 sequence: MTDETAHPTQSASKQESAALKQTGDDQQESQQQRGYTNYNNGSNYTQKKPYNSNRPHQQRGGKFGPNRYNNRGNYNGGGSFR
The experiment in a line: cross-linking; glutaraldehyde by vapour diffusion, 16 h at 4°C; Pub1p proteins 10 µM, Tif4631p (1–402) 1 µM, Tif4631p (1–184) 4 µM; 25 mM potassium phosphate, 150 mM NaCl, 0.1 mM DTT, pH 8.0; 15% SDS-PAGE, silver stain; both purified.

Assay [2] has as its target T2, Tif4631p (1–184) (Saccharomyces cerevisiae, UniProt P39935 1-184).
T2 construct: Tif4631p (yeast eIF4G1), Saccharomyces cerevisiae, residues 1-184; Cloned 'following equivalent methods' to the Pub1p constructs; source: E. coli BL21(DE3), purified (HisTrap, TEV digestion, second nickel column, anion exchange MonoQ); not shown: thioredoxin A, N-terminal, cleaved; His6, internal, cleaved
T2 sequence (looked up): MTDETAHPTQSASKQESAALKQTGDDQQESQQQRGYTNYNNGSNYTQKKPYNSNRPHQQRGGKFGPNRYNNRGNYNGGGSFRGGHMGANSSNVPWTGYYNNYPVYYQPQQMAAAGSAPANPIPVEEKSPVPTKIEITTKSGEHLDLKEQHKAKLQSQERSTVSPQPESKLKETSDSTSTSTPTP
The assay is described as above.

Assay [3] has as its target T3, Tif4631p (1–402) (Saccharomyces cerevisiae, UniProt P39935 1-402).
T3 construct: Cloned 'following equivalent methods' to the Pub1p constructs (same modified pET28 vector); Unlabelled or 15N-labelled according to the NMR experiment; source: E. coli BL21(DE3), purified (HisTrap, TEV digestion, second nickel column, anion exchange MonoQ); not shown: thioredoxin A, N-terminal, cleaved; His6, internal, cleaved
T3 sequence (looked up): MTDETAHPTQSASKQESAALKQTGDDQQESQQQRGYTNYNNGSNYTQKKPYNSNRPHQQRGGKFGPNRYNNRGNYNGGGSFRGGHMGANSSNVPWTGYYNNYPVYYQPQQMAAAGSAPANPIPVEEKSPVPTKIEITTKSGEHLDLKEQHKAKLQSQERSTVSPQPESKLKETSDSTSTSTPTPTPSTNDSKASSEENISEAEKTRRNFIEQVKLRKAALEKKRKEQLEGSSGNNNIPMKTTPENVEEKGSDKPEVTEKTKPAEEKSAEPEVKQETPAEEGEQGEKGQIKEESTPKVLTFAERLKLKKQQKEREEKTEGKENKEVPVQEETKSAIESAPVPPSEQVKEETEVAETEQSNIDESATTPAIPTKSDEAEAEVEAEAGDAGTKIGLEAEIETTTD
Described as above.

The target in assay [4] is T2, Tif4631p (1–184). The experiment in a line: condition: 10 µM Pub1p R3 double mutant, 4 µM Tif4631p (1–184); cross-linking; glutaraldehyde by vapour diffusion, 16 h at 4°C; Pub1p proteins 10 µM, Tif4631p (1–402) 1 µM, Tif4631p (1–184) 4 µM; 25 mM potassium phosphate, 150 mM NaCl, 0.1 mM DTT, pH 8.0; 15% SDS-PAGE, silver stain; both purified.
Assay [5] addresses T3, Tif4631p (1–402). Kind of assay: condition: 10 µM Pub1p R3 double mutant, 1 µM Tif4631p (1–402); cross-linking; glutaraldehyde by vapour diffusion, 16 h at 4°C; Pub1p proteins 10 µM, Tif4631p (1–402) 1 µM, Tif4631p (1–184) 4 µM; 25 mM potassium phosphate, 150 mM NaCl, 0.1 mM DTT, pH 8.0; 15% SDS-PAGE, silver stain; both purified.
Assay [6] concerns the target T4, Pub1p R3 (RRM3 domain, residues 315–414) (Saccharomyces cerevisiae) (UniProt P32588).
T4 sequence: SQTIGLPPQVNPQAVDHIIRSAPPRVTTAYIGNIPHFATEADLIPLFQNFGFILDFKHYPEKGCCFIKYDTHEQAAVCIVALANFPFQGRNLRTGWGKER
Kind of assay: NMR titration; 1H-15N HSQC of 15N-labelled Pub1p construct (100 µM) with unlabelled Tif4631p (1–402) added (1:1.9, 1:0.8 and 1:0.4 for Pub1p R3; 1:2 for Pub1p R12); 25 mM potassium phosphate pH 7.0, 25 mM NaCl, 0.1 mM DTT, 25°C; both purified.

Results are given in words; binding and its absence hold for the method and conditions named. Some binding calls cover weakened binding; strength is not graded here. Where a sequence is shown, tags or fusion partners need not be part of it.

B1: Pub1p R12 (RRM1 and RRM2 domains, residues 32–242) (domain or fragment, UniProt P32588 32-242)
chain: ADPSSEQSVAVEGNSEQAEDNQGENDPSVVPANAITGGRETSDRVLYVGNLDKAITEDILKQYFQVGGPIANIKIMIDKNNKNVNYAFVEYHQSHDANIALQTLNGKQIENNIVKINWAFQSQQSSSDDTFNLFVGDLNVNVDDETLRNAFKDFPSYLSGHVMWDMQTGSSRGYGFVSFTSQDDAQNAMDSMQGQDLNGRPLRINWAAKRD
B1: the binding result in assay [1] is “no binding (tested: 10 µM Pub1p R12)”; with Tif4631p (1–184) [2], “no binding (tested: 10 µM Pub1p R12, 4 µM Tif4631p (1–184))”; with Tif4631p (1–402) [3] it was “no binding (tested: 10 µM Pub1p R12, 1 µM Tif4631p (1–402))”.

B2: Pub1p R3 Phe364Ala/Phe366Ala double mutant (domain or fragment, UniProt P32588 315-414)
chain: SQTIGLPPQVNPQAVDHIIRSAPPRVTTAYIGNIPHFATEADLIPLFQNAGAILDFKHYPEKGCCFIKYDTHEQAAVCIVALANFPFQGRNLRTGWGKER
As for B2, the binding entry in assay [1] is “no binding (tested: 10 µM Pub1p R3 double mutant)”; with Tif4631p (1–184) [4] it was “no binding”; with Tif4631p (1–402) [5] it was “no binding”.

B3: Pub1p R3 (RRM3 domain, residues 315–414) (domain or fragment, Saccharomyces cerevisiae, UniProt P32588 315-414, looked up)
chain: SQTIGLPPQVNPQAVDHIIRSAPPRVTTAYIGNIPHFATEADLIPLFQNFGFILDFKHYPEKGCCFIKYDTHEQAAVCIVALANFPFQGRNLRTGWGKER
notes: also called Pub1p TRRM; Pub1p RRM3; source: E. coli BL21(DE3), purified (HisTrap, TEV digestion, second nickel column, cation exchange); not shown: thioredoxin A, N-terminal, cleaved; His6, internal, cleaved
Turning to B3, the binding entry in assay [1] was “no binding (tested: 10 µM Pub1p R3)”.

B4: Tif4631p (1–402) (domain or fragment, UniProt P39935 1-402)
chain: MTDETAHPTQSASKQESAALKQTGDDQQESQQQRGYTNYNNGSNYTQKKPYNSNRPHQQRGGKFGPNRYNNRGNYNGGGSFRGGHMGANSSNVPWTGYYNNYPVYYQPQQMAAAGSAPANPIPVEEKSPVPTKIEITTKSGEHLDLKEQHKAKLQSQERSTVSPQPESKLKETSDSTSTSTPTPTPSTNDSKASSEENISEAEKTRRNFIEQVKLRKAALEKKRKEQLEGSSGNNNIPMKTTPENVEEKGSDKPEVTEKTKPAEEKSAEPEVKQETPAEEGEQGEKGQIKEESTPKVLTFAERLKLKKQQKEREEKTEGKENKEVPVQEETKSAIESAPVPPSEQVKEETEVAETEQSNIDESATTPAIPTKSDEAEAEVEAEAGDAGTKIGLEAEIETTTD
Take B4: the binding entry in assay [6] is listed as “binds weakly”.
